Earlier results as cited in patent publication US8957071B2, “Treatment of vascular, autoimmune and inflammatory diseases using low dosages of IMPDH inhibitors” (Aspreva Pharmaceuticals S.A., priority 2005, dated 2015).
At least one structure is not confirmed: it was looked up by name or label, or the drawing left a doubt.

System: human carotid plaques
Settings: 3 months of pravastatin, reduced from 24.3%; cited from earlier work

## CC[C@H](C)C(=O)O[C@H]1C[C@H](O)C=C2C=C[C@H](C)[C@H](CC[C@@H](O)C[C@@H](O)CC(=O)O)[C@H]21 [pravastatin]
  percentage of CD3 positive cells: 11.2%
